Laboratory results taken from paper doi:10.1101/2020.09.22.307215.
Results are given in words; binding and its absence hold for the method and conditions named. Some results given as binding are weak or reduced against the parent protein; the word gives no strength.

Chains of the proteins cited; added tags and fusions are not shown.
UniProt P48431: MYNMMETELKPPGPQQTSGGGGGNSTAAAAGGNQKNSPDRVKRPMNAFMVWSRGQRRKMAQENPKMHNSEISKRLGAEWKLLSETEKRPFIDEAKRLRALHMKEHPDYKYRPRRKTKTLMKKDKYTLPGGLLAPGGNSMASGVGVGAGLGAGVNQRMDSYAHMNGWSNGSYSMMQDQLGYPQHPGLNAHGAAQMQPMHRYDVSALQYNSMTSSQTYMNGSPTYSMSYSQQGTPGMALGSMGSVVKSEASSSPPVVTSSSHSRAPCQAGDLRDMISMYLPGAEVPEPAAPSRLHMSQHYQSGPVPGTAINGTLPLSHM
UniProt Q3TKT4: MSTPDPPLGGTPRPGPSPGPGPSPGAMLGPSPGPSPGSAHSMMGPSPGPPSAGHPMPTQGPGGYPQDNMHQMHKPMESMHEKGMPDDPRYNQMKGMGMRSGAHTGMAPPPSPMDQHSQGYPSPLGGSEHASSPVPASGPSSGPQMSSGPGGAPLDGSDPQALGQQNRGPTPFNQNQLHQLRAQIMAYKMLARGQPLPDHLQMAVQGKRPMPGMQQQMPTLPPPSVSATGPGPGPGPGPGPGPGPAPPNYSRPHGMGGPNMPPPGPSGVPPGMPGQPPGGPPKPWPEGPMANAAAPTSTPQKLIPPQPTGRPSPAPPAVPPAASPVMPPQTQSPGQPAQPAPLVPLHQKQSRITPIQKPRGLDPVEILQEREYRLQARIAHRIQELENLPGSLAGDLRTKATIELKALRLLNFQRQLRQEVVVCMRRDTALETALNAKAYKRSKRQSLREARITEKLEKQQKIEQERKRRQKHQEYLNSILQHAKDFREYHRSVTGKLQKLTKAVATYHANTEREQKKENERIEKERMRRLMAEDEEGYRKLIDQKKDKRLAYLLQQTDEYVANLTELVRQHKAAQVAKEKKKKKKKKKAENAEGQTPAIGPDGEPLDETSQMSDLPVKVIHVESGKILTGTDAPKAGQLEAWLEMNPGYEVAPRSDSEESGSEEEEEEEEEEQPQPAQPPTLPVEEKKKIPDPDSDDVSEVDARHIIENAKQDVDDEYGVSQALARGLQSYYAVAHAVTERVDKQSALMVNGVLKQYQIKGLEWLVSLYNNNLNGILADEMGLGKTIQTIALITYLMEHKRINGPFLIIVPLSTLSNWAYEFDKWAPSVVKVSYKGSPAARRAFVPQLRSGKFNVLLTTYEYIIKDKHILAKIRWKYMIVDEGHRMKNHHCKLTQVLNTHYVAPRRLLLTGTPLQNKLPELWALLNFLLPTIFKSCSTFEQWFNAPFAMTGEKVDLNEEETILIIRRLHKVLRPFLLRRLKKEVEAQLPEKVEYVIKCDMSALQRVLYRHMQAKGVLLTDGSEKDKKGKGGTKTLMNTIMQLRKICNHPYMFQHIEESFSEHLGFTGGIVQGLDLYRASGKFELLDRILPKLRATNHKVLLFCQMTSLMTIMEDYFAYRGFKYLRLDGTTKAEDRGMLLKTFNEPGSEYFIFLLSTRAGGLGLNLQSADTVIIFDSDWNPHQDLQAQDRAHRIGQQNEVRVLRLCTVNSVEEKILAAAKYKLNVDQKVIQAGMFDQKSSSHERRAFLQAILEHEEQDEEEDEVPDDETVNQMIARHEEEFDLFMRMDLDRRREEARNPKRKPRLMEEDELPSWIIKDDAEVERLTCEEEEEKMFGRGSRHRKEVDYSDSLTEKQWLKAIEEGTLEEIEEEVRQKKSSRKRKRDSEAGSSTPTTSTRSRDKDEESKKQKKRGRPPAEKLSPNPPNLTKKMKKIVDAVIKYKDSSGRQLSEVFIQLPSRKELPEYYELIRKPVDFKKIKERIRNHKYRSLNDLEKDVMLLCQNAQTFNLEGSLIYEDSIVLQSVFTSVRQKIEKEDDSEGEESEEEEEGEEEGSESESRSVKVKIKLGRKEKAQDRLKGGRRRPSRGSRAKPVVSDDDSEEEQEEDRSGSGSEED

Target: GST-Sox2 (UniProt P48431)
Assay: pull-down

flag-tagged Smarca4 (from UniProt Q3TKT4 1-1613)
binding: binds
